PubChem BioAssay AID1259405 – NCATS | 2018
In all, the deposit lists about 50,000 reagents; below is an unselected part. About 4,000 of them (8%) count as active. 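Mouse siRNA library applied to hamster cells; one well for each siRNA.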 Unmarked entries are inactive. The numbers tell different reagents against one gene apart. Reagent sequences are not shown.

Screen: 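Knock-downs that lift recombinant protein yield in hamster ovary cells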 (primary screen)
Cell system: Chinese hamster CHO-K1 ovary cells with stable secreted eGFP expression
Reagent: single siRNA against mouse genes, 0.8 pmol siRNA per well (2 µl of 400 nM stock)
Timing: 3 days
Detection: 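Percent of the per-plate non-targeting control median for intracellular GFP per well by laser scanning cytometry and for cell viability by ATP luminescence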
Reading the numbers: GFP, % of control: higher = more GFP per well, higher productivity; viability (ATP), % of control: higher = more viable cells (more ATP)
Active means: 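Called active when intracellular GFP, relative to negative control, is at or above 120%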

gene | reagent | GFP, % of control | viability (ATP), % of control
Trim30d (tripartite motif-containing 30D) | 1 | 113 | 70.7
Trim30d (tripartite motif-containing 30D) | 2 | 62.6 | 68.5
Trim30d (tripartite motif-containing 30D) | 3 | 74.9 | 61.4
Resf1 (retroelement silencing factor 1) | 1 | 48.9 | 18.8
Resf1 (retroelement silencing factor 1) | 2 | 141 (active) | 66.9
Resf1 (retroelement silencing factor 1) | 3 | 68.8 | 62.9
Xkr4 (XK related 4) | 1 | 72.9 | 99.8
Xkr4 (XK related 4) | 2 | 51.5 | 66.1
Xkr4 (XK related 4) | 3 | 72.2 | 88.2
Zfta (zinc finger translocation associated) | 1 | 72.2 | 71.6
Zfta (zinc finger translocation associated) | 2 | 140 (active) | 116
Zfta (zinc finger translocation associated) | 3 | 105 | 108
Necap1 (NECAP endocytosis associated 1) | 1 | 85.2 | 89.1
Necap1 (NECAP endocytosis associated 1) | 2 | 75.2 | 73.2
Necap1 (NECAP endocytosis associated 1) | 3 | 129 (active) | 58.2
Vezf1 (vascular endothelial zinc finger 1) | 1 | 89 | 88.4
Vezf1 (vascular endothelial zinc finger 1) | 2 | 63.8 | 68.4
Fam174a (family with sequence similarity 174, member A) | 1 | 43.2 | 23.7
Fam174a (family with sequence similarity 174, member A) | 2 | 49.8 | 54.9
Fam174a (family with sequence similarity 174, member A) | 3 | 82.6 | 82.2
Slc30a1 | 1 | 76.1 | 109
Slc30a1 | 2 | 44.3 | 59
Slc30a1 | 3 | 61.6 | 59.8
Trim36 (tripartite motif-containing 36) | 1 | 56.4 | 40.8
Trim36 (tripartite motif-containing 36) | 2 | 64.1 | 77.4
Trim36 (tripartite motif-containing 36) | 3 | 105 | 59.9
Scgb2b2 (secretoglobin, family 2B, member 2) | 1 | 60 | 66.5
Scgb2b2 (secretoglobin, family 2B, member 2) | 2 | 62.6 | 55.9
Scgb2b2 (secretoglobin, family 2B, member 2) | 3 | 63.7 | 60.5
Cdk5rap3 (CDK5 regulatory subunit associated protein 3) | 1 | 66.9 | 90.2
Cdk5rap3 (CDK5 regulatory subunit associated protein 3) | 2 | 98 | 83.2
Cdk5rap3 (CDK5 regulatory subunit associated protein 3) | 3 | 78.7 | 80.1

Entries listed so far with an active call (3):
gene | reagent | GFP, % of control | viability (ATP), % of control
Resf1 (retroelement silencing factor 1) | 2 | 141 (active) | 66.9
Zfta (zinc finger translocation associated) | 2 | 140 (active) | 116
Necap1 (NECAP endocytosis associated 1) | 3 | 129 (active) | 58.2

Next records follow.
gene | reagent | GFP, % of control | viability (ATP), % of control
Kif23 (kinesin family member 23) | 1 | 46.5 | 43.2
Kif23 (kinesin family member 23) | 2 | 72.3 | 80.1
Kif23 (kinesin family member 23) | 3 | 34 | 69.2
Or8g54 (olfactory receptor family 8 subfamily G member 54) | 1 | 98.5 | 65.3
Or8g54 (olfactory receptor family 8 subfamily G member 54) | 2 | 58.5 | 67
Or8g54 (olfactory receptor family 8 subfamily G member 54) | 3 | 51.9 | 54.6
Or6c66b (olfactory receptor family 6 subfamily C member 66B) | 1 | 105 | 109
Or6c66b (olfactory receptor family 6 subfamily C member 66B) | 2 | 48.3 | 18.2
Or6c66b (olfactory receptor family 6 subfamily C member 66B) | 3 | 96.8 | 71.7
Or5d36 (olfactory receptor family 5 subfamily D member 36) | 1 | 49.2 | 41.2
Or5d36 (olfactory receptor family 5 subfamily D member 36) | 2 | 108 | 96.8
Or5d36 (olfactory receptor family 5 subfamily D member 36) | 3 | 55.6 | 55.5
Fpr1 (formyl peptide receptor 1) | 1 | 99.3 | 74
Fpr1 (formyl peptide receptor 1) | 2 | 110 | 77.4
Fpr1 (formyl peptide receptor 1) | 3 | 74.7 | 58.2
Tbc1d19 (TBC1 domain family, member 19) | 1 | 115 | 77.6
Tbc1d19 (TBC1 domain family, member 19) | 2 | 74.1 | 49.5
Tbc1d19 (TBC1 domain family, member 19) | 3 | 67.2 | 63.6
Tas2r140 (taste receptor, type 2, member 140) | 1 | 93.4 | 66.2
Tas2r140 (taste receptor, type 2, member 140) | 2 | 54.3 | 66.2
Tas2r140 (taste receptor, type 2, member 140) | 3 | 65.9 | 84.4
Polg (polymerase (DNA directed), gamma) | 1 | 59.7 | 59.4
Polg (polymerase (DNA directed), gamma) | 2 | 68.2 | 51.1
Polg (polymerase (DNA directed), gamma) | 3 | 86.4 | 89
Ing3 (inhibitor of growth family, member 3) | 1 | 74.7 | 79.2
Ing3 (inhibitor of growth family, member 3) | 2 | 80 | 79.2
